Source: PubChem BioAssay AID1224828 (NIAID, 2016)
Assay: 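Knock-downs that increase or decrease LPS-induced p65 nuclear translocation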 (primary screen). System: mouse RAW264.7 G9 macrophage reporter cells (GFP-p65, Tnf promoter-mCherry). Reagent: siRNA pool against mouse genes, 100 nM. Timing: 2 days siRNA transfection, then 40 min LPS before fixation. Treatment: LPS (Salmonella minnesota R595) at 10 ng/ml. Read-out: 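Imaged p65 nuclear translocation ratio, normalised to the plate median, converted to robust z-scores and averaged across two replicates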. Reading the numbers: p65 translocation robust z-score: higher = more nuclear NF-kappaB p65 after LPS than the plate median; nuclear/cytoplasmic p65 ratio: higher = more nuclear NF-kappaB p65. Rule for the call: 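Active if robust z is above 3.3 (negative regulators) or below -1.56, the Tlr4 control median (positive regulators); activity score 50 or more; control wells not called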. Calls: active = hit (p65 shift raised or lowered); inactive = no clear change.
The deposit covers about 17,000 reagents; below is an unselected part. In the full data, 762 (4.5%) are marked active. 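Active calls include both raised and lowered p65 entry, mostly lowered; wells with fewer than 50 cells lack a z-score.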 The raw values are shown without normalisation. Reagents against one gene are numbered here. No sequences are given here.

Thyn1 (GeneID 77862)
- nuclear/cytoplasmic p65 ratio, rep 1: 1.34
- nuclear/cytoplasmic p65 ratio, rep 2: 1.2
- low cell count flag: fewer than 50 cells per well; well left out of scoring
- outcome: inactive

P2rx5 (GeneID 94045)
- p65 translocation robust z-score: 1.65
- nuclear/cytoplasmic p65 ratio, rep 1: 1.68
- nuclear/cytoplasmic p65 ratio, rep 2: 1.62
- low cell count flag: enough cells to score
- outcome: inactive

Or52e2 (GeneID 259054)
- nuclear/cytoplasmic p65 ratio, rep 1: 1.49
- nuclear/cytoplasmic p65 ratio, rep 2: 1.27
- low cell count flag: fewer than 50 cells per well; well left out of scoring
- outcome: inactive

Or5d18 (GeneID 117004)
- nuclear/cytoplasmic p65 ratio, rep 1: 1.5
- nuclear/cytoplasmic p65 ratio, rep 2: 1.32
- low cell count flag: fewer than 50 cells per well; well left out of scoring
- outcome: inactive

Ptgdr (GeneID 19214)
- p65 translocation robust z-score: -0.15
- nuclear/cytoplasmic p65 ratio, rep 1: 1.46
- nuclear/cytoplasmic p65 ratio, rep 2: 1.6
- low cell count flag: enough cells to score
- outcome: inactive

Timm17b (GeneID 21855)
- nuclear/cytoplasmic p65 ratio, rep 1: 1.23
- nuclear/cytoplasmic p65 ratio, rep 2: 0.988
- low cell count flag: fewer than 50 cells per well; well left out of scoring
- outcome: inactive

Oog3 (GeneID 100012)
- p65 translocation robust z-score: -2.33
- nuclear/cytoplasmic p65 ratio, rep 1: 1.12
- nuclear/cytoplasmic p65 ratio, rep 2: 1.1
- low cell count flag: enough cells to score
- outcome: active

Cyfip1 (GeneID 20430)
- p65 translocation robust z-score: -0.61
- nuclear/cytoplasmic p65 ratio, rep 1: 1.43
- nuclear/cytoplasmic p65 ratio, rep 2: 1.75
- low cell count flag: enough cells to score
- outcome: inactive

Eepd1 (GeneID 67484)
- p65 translocation robust z-score: -2
- nuclear/cytoplasmic p65 ratio, rep 1: 1.23
- nuclear/cytoplasmic p65 ratio, rep 2: 0.955
- low cell count flag: enough cells to score
- outcome: active

Med15 (GeneID 94112)
- p65 translocation robust z-score: -0.86
- nuclear/cytoplasmic p65 ratio, rep 1: 1.31
- nuclear/cytoplasmic p65 ratio, rep 2: 1.16
- low cell count flag: enough cells to score
- outcome: inactive

Defb4 (GeneID 56519)
- p65 translocation robust z-score: 0.23
- nuclear/cytoplasmic p65 ratio, rep 1: 1.56
- nuclear/cytoplasmic p65 ratio, rep 2: 1.63
- low cell count flag: enough cells to score
- outcome: inactive

Mia3 (GeneID 338366)
- p65 translocation robust z-score: -0.11
- nuclear/cytoplasmic p65 ratio, rep 1: 1.39
- nuclear/cytoplasmic p65 ratio, rep 2: 1.51
- low cell count flag: enough cells to score
- outcome: inactive

Ptprcap (GeneID 19265)
- p65 translocation robust z-score: 0.19
- nuclear/cytoplasmic p65 ratio, rep 1: 1.47
- nuclear/cytoplasmic p65 ratio, rep 2: 1.48
- low cell count flag: enough cells to score
- outcome: inactive

Tigd3 (GeneID 332359)
- p65 translocation robust z-score: -0.4
- nuclear/cytoplasmic p65 ratio, rep 1: 1.69
- nuclear/cytoplasmic p65 ratio, rep 2: 1.45
- low cell count flag: enough cells to score
- outcome: inactive

Or4c10 (GeneID 258980)
- nuclear/cytoplasmic p65 ratio, rep 1: 1.19
- nuclear/cytoplasmic p65 ratio, rep 2: 1.18
- low cell count flag: fewer than 50 cells per well; well left out of scoring
- outcome: inactive

Slx1b (GeneID 75764)
- p65 translocation robust z-score: 0.35
- nuclear/cytoplasmic p65 ratio, rep 1: 1.45
- nuclear/cytoplasmic p65 ratio, rep 2: 1.4
- low cell count flag: enough cells to score
- outcome: inactive

Ifi209 (GeneID 236312)
- p65 translocation robust z-score: 0.14
- nuclear/cytoplasmic p65 ratio, rep 1: 1.69
- nuclear/cytoplasmic p65 ratio, rep 2: 1.64
- low cell count flag: enough cells to score
- outcome: inactive

Pramel4 (GeneID 347710) #1
- p65 translocation robust z-score: 1.4
- nuclear/cytoplasmic p65 ratio, rep 1: 1.51
- nuclear/cytoplasmic p65 ratio, rep 2: 1.42
- low cell count flag: enough cells to score
- outcome: inactive

Pramel4 (GeneID 347710) #2
- p65 translocation robust z-score: -1.59
- nuclear/cytoplasmic p65 ratio, rep 1: 1.2
- nuclear/cytoplasmic p65 ratio, rep 2: 1.02
- low cell count flag: enough cells to score
- outcome: active

Or8s10 (GeneID 258449)
- nuclear/cytoplasmic p65 ratio, rep 1: 1.83
- nuclear/cytoplasmic p65 ratio, rep 2: 1.69
- low cell count flag: fewer than 50 cells per well; well left out of scoring
- outcome: inactive

Aqp3 (GeneID 11828)
- p65 translocation robust z-score: -1.11
- nuclear/cytoplasmic p65 ratio, rep 1: 1.44
- nuclear/cytoplasmic p65 ratio, rep 2: 1.46
- low cell count flag: enough cells to score
- outcome: inactive

Entries listed so far whose target name starts with P or p:
P2rx5 (GeneID 94045)
- p65 translocation robust z-score: 1.65
- nuclear/cytoplasmic p65 ratio, rep 1: 1.68
- nuclear/cytoplasmic p65 ratio, rep 2: 1.62
- low cell count flag: enough cells to score
- outcome: inactive

Ptgdr (GeneID 19214)
- p65 translocation robust z-score: -0.15
- nuclear/cytoplasmic p65 ratio, rep 1: 1.46
- nuclear/cytoplasmic p65 ratio, rep 2: 1.6
- low cell count flag: enough cells to score
- outcome: inactive

Ptprcap (GeneID 19265)
- p65 translocation robust z-score: 0.19
- nuclear/cytoplasmic p65 ratio, rep 1: 1.47
- nuclear/cytoplasmic p65 ratio, rep 2: 1.48
- low cell count flag: enough cells to score
- outcome: inactive

Pramel4 (GeneID 347710) #1
- p65 translocation robust z-score: 1.4
- nuclear/cytoplasmic p65 ratio, rep 1: 1.51
- nuclear/cytoplasmic p65 ratio, rep 2: 1.42
- low cell count flag: enough cells to score
- outcome: inactive

Pramel4 (GeneID 347710) #2
- p65 translocation robust z-score: -1.59
- nuclear/cytoplasmic p65 ratio, rep 1: 1.2
- nuclear/cytoplasmic p65 ratio, rep 2: 1.02
- low cell count flag: enough cells to score
- outcome: active
